Measurements taken from the supplement of paper PMC12823440, “Inhibitors supercharge kinase turnover through native proteolytic circuits” (Nature, 2025).
Where a name gives a salt, the structure may show the parent alone. Some of the results follow. The calls rarely recur for the same compound in another form.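 Kinases were expressed as nanoluciferase fusions in K562 cells and luminescence was read every 4 h between 2 and 18 h as percent of control, DMSO set to 100% and a positive control to 0%. A time point counts as decreased when the signal drops significantly (2 sigma). The hit call is the authors' own, does not follow from the count of time points alone, and its rule is not shown.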

Protein sequences, listed by entry. Tags and fused reporters are not part of them. Lines headed by an entry give the natural chain unless they say otherwise; changes in a name come on top.
UniProt O96013: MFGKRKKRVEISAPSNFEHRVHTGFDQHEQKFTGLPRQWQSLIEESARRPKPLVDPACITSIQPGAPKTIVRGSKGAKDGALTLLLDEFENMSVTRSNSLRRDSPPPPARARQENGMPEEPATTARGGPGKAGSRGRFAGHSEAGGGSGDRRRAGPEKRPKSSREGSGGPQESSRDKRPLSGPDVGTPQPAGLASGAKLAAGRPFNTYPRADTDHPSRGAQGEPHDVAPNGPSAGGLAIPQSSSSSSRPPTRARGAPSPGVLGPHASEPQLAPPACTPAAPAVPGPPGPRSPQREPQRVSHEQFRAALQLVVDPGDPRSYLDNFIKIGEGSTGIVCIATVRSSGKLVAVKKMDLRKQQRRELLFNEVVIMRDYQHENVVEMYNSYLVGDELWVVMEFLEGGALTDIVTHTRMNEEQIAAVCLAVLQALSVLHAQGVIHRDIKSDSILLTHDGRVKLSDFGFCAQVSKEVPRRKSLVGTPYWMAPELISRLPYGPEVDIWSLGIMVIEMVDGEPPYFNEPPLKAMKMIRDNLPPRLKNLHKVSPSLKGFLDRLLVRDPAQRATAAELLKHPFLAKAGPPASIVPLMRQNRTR

Biological target: PAK4 (UniProt O96013)
Assay: kinase-Nluc reporter destabilization hit call (1 = scored as downregulated) (binary); higher = compound decreases kinase abundance
Settings: K562; 2-18 h

kinase-Nluc reporter destabilization hit call, inactive:
COc1ccc2cc1Oc1ccc(cc1)C[C@H]1c3cc(c(OC)cc3CCN1C)Oc1c(O)c(OC)cc3c1[C@H](C2)N(C)CC3 [Fangchinoline] (2.5 µM) 0
CS[C@@]1(C(=O)Nc2ccc3[nH]nc(-c4ccc(OC(C)C)nc4)c3c2)CCN(CC(=O)N2CC=C(c3ccc(-c4ncn(C)n4)cc3)CC2)C1 (2.5 µM) 0
CC/C(=C(\c1ccccc1)c1ccc(OCCNC)cc1)c1ccccc1 [N-Desmethyltamoxifen (hydrochloride)] (2.5 µM) 0
CNC(=O)CN1CCC(Oc2cc3c(Nc4cccc(Cl)c4F)ncnc3cc2OC)CC1 [Sapitinib] (10 µM) 0
O=CN1CCN(c2ccc(C=C3C(=O)Nc4ccccc43)cc2)CC1 (10 µM) 0
CCCCC(=O)OCC(=O)[C@]1(O)Cc2c(O)c3c(c(O)c2[C@@H](O[C@H]2C[C@H](NC(=O)C(F)(F)F)[C@H](O)[C@H](C)O2)C1)C(=O)c1c(OC)cccc1C3=O [Valrubicin] (10 µM) 0
Fc1ccc(Cl)cc1-c1nc(Nc2ccncc2)c2nccnc2n1 (10 µM) 0
